{"source": "paper PMC12040169", "about": "(PLOS Biology, 2025)", "note": "Some of the results follow."}
{"tested_on": "T1, CTL2-GFP (C. trachomatis L2/434/Bu, GFP-expressing)", "T1 construct": "L2/434/Bu, GFP-expressing", "set-up": "species or system HeLa; Intracellular C. trachomatis growth in HeLa cells, bulk GFP fluorescence relative to DMSO", "details": "bulk GFP, single well; 28.5 h, 10 µM; inhibitor", "units": {"% of control remaining": "%"}}
{"smiles": "Cc1cc(-c2cn3ccnc3c(N3CCOCC3)n2)cc(C)c1O", "note": "[CBK066691]", "% of control remaining": 185.855}
{"smiles": "Cc1ccc(SCS(=O)(=O)c2ccc(C)cc2)cc1", "note": "[CBK026853]", "% of control remaining": 123.16}
{"smiles": "O=C(Nc1nnc(SCc2cc(=O)n3nc[nH]c3n2)s1)c1ccc(F)cc1", "note": "[CBK294399]", "% of control remaining": 121.59}
{"smiles": "CSc1nnc(-c2ccc(C(C)(C)C)cc2)n1Cc1ccco1", "note": "[CBK017071]", "% of control remaining": 99.5376}
{"smiles": "COc1ccc2nc(N3CCc4ccccc4C3)sc2c1", "note": "[CBK287493]", "% of control remaining": 161.196}
{"smiles": "O=C(O)C1CCN(C(=O)CCn2ccc3cc(Br)ccc32)CC1", "note": "[CBK286617]", "% of control remaining": 124.808}
{"smiles": "CC(=O)N[C@H]1CO[C@H]2[C@@H]1OC[C@@H]2n1nnnc1Oc1ccc(-n2ccnc2)cc1", "note": "[CBK289487]", "% of control remaining": 113.004}
{"smiles": "COC(=O)C1(Cc2ccccc2)CN(C(=O)OC(C)(C)C)CCC1=O", "note": "(centres unmarked) [CBK003486]", "% of control remaining": 114.617}
{"smiles": "Cc1cccc2c1CC(=O)NC21CCN(Cc2ccccc2)CC1", "note": "[CBK039819]", "% of control remaining": 158.592}
{"smiles": "CCN1CCN(C(=O)CN(Cc2ccc(F)cc2)S(=O)(=O)c2ccccc2)CC1", "note": "[CBK266612]", "% of control remaining": 158.85}
{"smiles": "O=C(CSc1nnc(-c2cccnc2)o1)c1ccccc1", "note": "[CBK068446]", "% of control remaining": 0}
{"smiles": "Cc1nnc(CN(C)C2CCN(CCCc3ccccc3)C2)n1C", "note": "(centres unmarked) [CBK304000]", "% of control remaining": 114.227}
{"smiles": "COc1cc(F)ccc1S(=O)(=O)NC1CC(C)(C)NC(C)(C)C1", "note": "[CBK266428]", "% of control remaining": 106.603}
{"smiles": "C=CCNC(=O)[C@H]1C=CCN1C(=O)Nc1ccccc1Cl", "note": "[CBK282348]", "% of control remaining": 114.808}
{"smiles": "O=C(CN(Cc1ccc(F)cc1)S(=O)(=O)c1ccc(Cl)cc1)Nc1ccc2c(c1)OCCO2", "note": "[CBK265346]", "% of control remaining": 112.598}
{"smiles": "COc1ccc(-c2noc(CNC(=O)Cc3ccc(-c4ccccc4)cc3)n2)cc1", "note": "[CBK269272]", "% of control remaining": 143.379}
{"smiles": "CCNC(=O)N1CCN(CCCCN2C(=O)CC3(CCCC3)CC2=O)CC1", "note": "[CBK024999C]", "% of control remaining": 112.208}
{"smiles": "Cc1ccccc1NC(=O)c1cnc2sccn2c1=O", "note": "[CBK287447]", "% of control remaining": 144.13}
{"smiles": "COC(=O)CCC(=O)N1CCC2(CCN(Cc3ccccc3)C2)C1", "note": "(centres unmarked) [CBK136852]", "% of control remaining": 94.5239}
{"smiles": "CC(NS(=O)(=O)c1ccccc1Cl)C(=O)N1CCCCC1C", "note": "(centres unmarked) [CBK305797]", "% of control remaining": 163.316}
{"smiles": "CCOC(=O)c1sc(NS(=O)(=O)Cc2ccccc2[N+](=O)[O-])nc1C", "note": "[CBK047458]", "% of control remaining": 114.799}
{"smiles": "Cc1ccc([N+](=O)[O-])cc1NC(=O)CSc1nnc(Cc2ccccc2)o1", "note": "[CBK265889]", "% of control remaining": 97.0345}
{"smiles": "O=S(=O)(NCCc1cccc(C(F)(F)F)c1)c1cccs1", "note": "[CBK044068]", "% of control remaining": 126.328}
{"smiles": "Cc1cccc(NC(=O)c2cnc3n(c2=O)CCS3)c1", "note": "[CBK287375]", "% of control remaining": 109.583}
{"smiles": "c1ccc(CCNC2CCCc3c2[nH]c2ccc(C4CCCCC4)cc32)cc1", "note": "(centres unmarked) [CBK261602C]", "% of control remaining": 120.262}
{"smiles": "O=C(NC(c1ccccc1)c1ccccc1)N1CCN(Cc2ccccc2)CC1", "note": "[CBK155630]", "% of control remaining": 123.209}
{"smiles": "COc1ccc(/C=C(\\C)C(=O)NCc2ccccc2OC2CCNC2)cc1OC", "note": "(centres unmarked) [CBK034157T]", "% of control remaining": 128.432}
{"smiles": "CCC(C(=O)NCC1CCCN(C(C)C)C1)n1cnc2ccccc21", "note": "(centres unmarked) [CBK282706]", "% of control remaining": 126.741}
{"smiles": "N#C/C(=C\\c1cn(-c2ccccc2)nc1-c1cccc(S(=O)(=O)N2CCCC2)c1)c1nc2ccccc2c(=O)[nH]1", "note": "[CBK266296]", "% of control remaining": 194.436}
{"smiles": "CC#CC1CCCC2N(c3ccccc3)CCN12", "note": "(centres unmarked) [CBK028191]", "% of control remaining": 92.8282}
{"smiles": "Cc1noc(-c2cn(C)nc2C2CCCCN2CC2CC2)c1C", "note": "(centres unmarked) [CBK283408]", "% of control remaining": 119.807}
{"smiles": "CCOc1ccc(-c2n[nH]c(=S)n2CCC(=O)N2CCCN(Cc3ccc(C#N)cc3)CC2)cc1", "note": "[CBK297893]", "% of control remaining": 124.734}
{"smiles": "COc1ccc(CN2CCN(C(=O)c3cccc(F)c3)CC2)cc1", "note": "[CBK304396]", "% of control remaining": 115.055}
{"smiles": "CCOc1ccc2c(c1)N1C(=O)NC(C(F)(F)F)(C(F)(F)F)N=C1S2", "note": "[CBK025440]", "% of control remaining": 143.225}
{"smiles": "COC(=O)[C@@H]1Cc2ncn(C)c2CN1C(=O)c1ccc(C#N)cc1", "note": "[CBK288994]", "% of control remaining": 126.079}
{"smiles": "CN(Cc1ccccc1)C(=O)c1c[nH]nc1C1CCCCN1Cc1ccccc1Cl", "note": "(centres unmarked) [CBK285936]", "% of control remaining": 117.316}
{"smiles": "CCNC(=O)c1cn(Cc2ccccc2)nn1", "note": "[CBK073904]", "% of control remaining": 124.995}
{"smiles": "COc1ccc(C2=NN(CN3C(=O)C(=O)c4cc(Br)ccc43)C(c3cccc([N+](=O)[O-])c3)C2)cc1", "note": "(centres unmarked) [CBK263490]", "% of control remaining": 83.3377}
{"smiles": "COCC(=O)N1CCC(c2nc(C)n3c(C)csc23)CC1", "note": "[CBK285198]", "% of control remaining": 107.19}
{"smiles": "CCOc1ccc(CCNC(=O)c2cnc(Nc3ccccc3OC)c3ccccc23)cc1OCC", "note": "[CBK291185]", "% of control remaining": 145.478}
{"smiles": "Cc1[nH]c2ccc(C(=O)O)cc2c1CC(=O)O", "note": "[CBK267080]", "% of control remaining": 138.813}
{"smiles": "CCCC(=O)N[C@@H](Cn1c(=O)oc2ccccc21)C(C)C", "note": "[CBK284536]", "% of control remaining": 138.578}
{"smiles": "Brc1csc(CN2CCN3CCCC3C2C2CCCCC2)c1", "note": "(centres unmarked) [CBK026298]", "% of control remaining": 131.771}
{"smiles": "CS(=O)(=O)Nc1cc2ccccc2c(-c2ccc(OC(F)(F)F)cc2)n1", "note": "[CBK085757]", "% of control remaining": 63.3038}
{"smiles": "CCOC(=O)CN(Cc1ccccc1)Cc1ccc(OC)cc1", "note": "[CBK126460]", "% of control remaining": 100}
{"smiles": "NCCN(Cc1cccc(Cl)c1)C(=O)NC(c1ccccc1)c1ccccc1", "note": "[CBK046203C]", "% of control remaining": 91.2412}
{"smiles": "COc1cc(/C=C/C(=O)O)cc(S(=O)(=O)N2CCOCC2)c1OC", "note": "[CBK264078]", "% of control remaining": 100.695}
{"smiles": "COc1cc(CN2CCN(Cc3ccco3)CC2)cc(OC)c1OC", "note": "[CBK074520G]", "% of control remaining": 115.733}
{"smiles": "O=C(c1ccc(-c2cnc3[nH]c(=O)n(CCc4cccnc4)c3n2)cc1)N1CCOCC1", "note": "[CBK064334]", "% of control remaining": 164.368}
{"smiles": "O=C(O)c1ccc(N2C(=O)C(O)=C(C(=O)c3ccccc3)C2c2cccc([N+](=O)[O-])c2)cc1", "note": "(centres unmarked) [CBK263760]", "% of control remaining": 105.963}
